These are yes or no findings as the source states them, for the method shown. Binding calls can cover weak binding; strength is not graded here. Tags and fused reporters may be left off the sequences shown.

The experiment concerns the target T1, P. aeruginosa ATCC27853 CdnD (yeast two-hybrid fusion) (P. aeruginosa ATCC27853) (UniProt P0DTF7).
T1 sequence: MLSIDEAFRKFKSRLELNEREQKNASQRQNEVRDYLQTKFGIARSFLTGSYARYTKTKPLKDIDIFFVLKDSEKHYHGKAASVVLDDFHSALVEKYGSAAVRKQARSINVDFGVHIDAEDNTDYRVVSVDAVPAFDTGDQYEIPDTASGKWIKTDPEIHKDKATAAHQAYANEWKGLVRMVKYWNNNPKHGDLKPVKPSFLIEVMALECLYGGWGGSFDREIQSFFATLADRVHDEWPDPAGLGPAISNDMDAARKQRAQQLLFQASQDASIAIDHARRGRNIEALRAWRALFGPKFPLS
The experiment can be described thus: two-hybrid.
As to “Pa HORMA2-ΔC (lacking residues 134-166; yeast two-hybrid fusion) (P. aeruginosa ATCC27853) (domain or fragment)”, the binding entry is “no binding”.

As for “P. aeruginosa ATCC27853 HORMA1 (yeast two-hybrid fusion)”, the binding result is “binds”.

On to “P. aeruginosa ATCC27853 HORMA2 (yeast two-hybrid fusion)”, for which the binding entry is listed as “binds”.

The values are drawn from publication doi:10.1101/694695 (bioRxiv, 2019).
